The list shows a part of the results. The data scatter; read single values as rough.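 Many melting curves are irregular; where none melted, Tm was taken as 64 °C.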
Compound: CCc1cnccc1C(=O)Nc1cc2c(cc1F)NC(=O)CC2
Assay: melting temperature shift (DMSO Tm minus MBE1-treated Tm) in cellular thermal proteome profiling; higher = less thermal stabilization by MBE1 (negative = stabilized by MBE1)
Conditions: A375

The chains behind the UniProt entries cited, without tags or fusion partners. Where a name states a change or a piece, a line headed by the entry shows the natural chain unless it says otherwise.
UniProt Q96P53: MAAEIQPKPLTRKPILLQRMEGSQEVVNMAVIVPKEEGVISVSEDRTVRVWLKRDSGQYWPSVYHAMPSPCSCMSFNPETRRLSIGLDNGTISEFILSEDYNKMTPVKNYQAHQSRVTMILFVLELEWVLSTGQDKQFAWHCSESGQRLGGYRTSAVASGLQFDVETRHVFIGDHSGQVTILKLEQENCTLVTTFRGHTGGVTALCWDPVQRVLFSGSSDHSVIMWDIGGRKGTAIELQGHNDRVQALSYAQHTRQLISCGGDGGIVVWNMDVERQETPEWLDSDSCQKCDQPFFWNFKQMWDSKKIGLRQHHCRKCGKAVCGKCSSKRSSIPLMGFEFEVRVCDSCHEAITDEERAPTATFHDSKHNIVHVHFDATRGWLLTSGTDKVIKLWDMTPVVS
UniProt Q96QC0: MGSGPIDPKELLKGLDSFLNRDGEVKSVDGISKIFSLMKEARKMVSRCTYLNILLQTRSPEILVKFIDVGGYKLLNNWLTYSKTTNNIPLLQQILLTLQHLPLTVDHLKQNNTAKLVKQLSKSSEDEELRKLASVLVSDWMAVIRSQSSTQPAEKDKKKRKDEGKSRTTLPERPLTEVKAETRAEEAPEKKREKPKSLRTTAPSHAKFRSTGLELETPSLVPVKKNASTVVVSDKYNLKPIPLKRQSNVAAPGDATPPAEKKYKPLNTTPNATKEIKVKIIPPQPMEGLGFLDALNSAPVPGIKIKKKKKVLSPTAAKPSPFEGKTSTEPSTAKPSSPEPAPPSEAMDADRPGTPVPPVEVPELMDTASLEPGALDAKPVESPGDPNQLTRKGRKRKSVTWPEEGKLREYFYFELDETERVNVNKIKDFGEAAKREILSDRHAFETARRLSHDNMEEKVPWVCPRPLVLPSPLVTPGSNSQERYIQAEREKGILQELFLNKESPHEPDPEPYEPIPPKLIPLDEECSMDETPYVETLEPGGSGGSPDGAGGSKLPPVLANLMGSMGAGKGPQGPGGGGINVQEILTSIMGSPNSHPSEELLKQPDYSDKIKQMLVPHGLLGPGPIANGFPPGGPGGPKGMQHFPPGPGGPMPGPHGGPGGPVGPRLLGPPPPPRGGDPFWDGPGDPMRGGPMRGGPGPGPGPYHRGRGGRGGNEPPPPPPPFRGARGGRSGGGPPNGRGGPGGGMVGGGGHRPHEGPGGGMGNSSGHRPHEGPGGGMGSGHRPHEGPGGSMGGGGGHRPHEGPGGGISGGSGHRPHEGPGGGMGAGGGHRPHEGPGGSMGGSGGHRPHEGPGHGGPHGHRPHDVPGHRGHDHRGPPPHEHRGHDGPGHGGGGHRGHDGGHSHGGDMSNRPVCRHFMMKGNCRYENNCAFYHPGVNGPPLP
UniProt Q96PM9: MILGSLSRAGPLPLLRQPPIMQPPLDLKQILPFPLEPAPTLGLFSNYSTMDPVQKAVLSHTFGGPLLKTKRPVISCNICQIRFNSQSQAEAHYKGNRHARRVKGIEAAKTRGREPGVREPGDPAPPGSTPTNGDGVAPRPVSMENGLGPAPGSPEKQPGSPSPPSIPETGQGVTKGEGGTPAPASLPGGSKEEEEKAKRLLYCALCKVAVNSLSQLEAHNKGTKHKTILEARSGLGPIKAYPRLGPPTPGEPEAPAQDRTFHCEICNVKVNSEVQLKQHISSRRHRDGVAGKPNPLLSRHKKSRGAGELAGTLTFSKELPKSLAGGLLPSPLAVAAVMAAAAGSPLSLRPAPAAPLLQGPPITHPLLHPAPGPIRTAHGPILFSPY
UniProt Q96JJ7: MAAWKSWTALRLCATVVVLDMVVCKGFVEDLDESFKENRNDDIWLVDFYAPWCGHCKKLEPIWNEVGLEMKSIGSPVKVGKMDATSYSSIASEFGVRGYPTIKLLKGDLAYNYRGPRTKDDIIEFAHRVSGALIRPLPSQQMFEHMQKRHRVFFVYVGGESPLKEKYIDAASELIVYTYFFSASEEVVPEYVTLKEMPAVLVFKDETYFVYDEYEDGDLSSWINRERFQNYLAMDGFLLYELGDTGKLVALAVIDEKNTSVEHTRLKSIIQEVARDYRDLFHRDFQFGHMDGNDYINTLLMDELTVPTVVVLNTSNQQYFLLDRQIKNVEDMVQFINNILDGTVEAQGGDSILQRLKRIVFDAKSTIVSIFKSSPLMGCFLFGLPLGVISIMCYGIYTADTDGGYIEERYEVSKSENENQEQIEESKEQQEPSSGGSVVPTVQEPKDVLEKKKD
UniProt Q96PU8: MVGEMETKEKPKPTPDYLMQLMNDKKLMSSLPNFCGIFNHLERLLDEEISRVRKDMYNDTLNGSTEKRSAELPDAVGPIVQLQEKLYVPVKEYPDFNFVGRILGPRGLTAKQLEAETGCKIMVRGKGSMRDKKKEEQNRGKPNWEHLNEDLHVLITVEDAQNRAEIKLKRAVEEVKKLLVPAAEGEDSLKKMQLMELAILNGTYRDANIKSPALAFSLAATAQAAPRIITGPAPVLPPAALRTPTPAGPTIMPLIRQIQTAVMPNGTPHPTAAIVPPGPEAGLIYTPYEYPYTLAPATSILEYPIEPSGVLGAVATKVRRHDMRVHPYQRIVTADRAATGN
UniProt Q96HP0: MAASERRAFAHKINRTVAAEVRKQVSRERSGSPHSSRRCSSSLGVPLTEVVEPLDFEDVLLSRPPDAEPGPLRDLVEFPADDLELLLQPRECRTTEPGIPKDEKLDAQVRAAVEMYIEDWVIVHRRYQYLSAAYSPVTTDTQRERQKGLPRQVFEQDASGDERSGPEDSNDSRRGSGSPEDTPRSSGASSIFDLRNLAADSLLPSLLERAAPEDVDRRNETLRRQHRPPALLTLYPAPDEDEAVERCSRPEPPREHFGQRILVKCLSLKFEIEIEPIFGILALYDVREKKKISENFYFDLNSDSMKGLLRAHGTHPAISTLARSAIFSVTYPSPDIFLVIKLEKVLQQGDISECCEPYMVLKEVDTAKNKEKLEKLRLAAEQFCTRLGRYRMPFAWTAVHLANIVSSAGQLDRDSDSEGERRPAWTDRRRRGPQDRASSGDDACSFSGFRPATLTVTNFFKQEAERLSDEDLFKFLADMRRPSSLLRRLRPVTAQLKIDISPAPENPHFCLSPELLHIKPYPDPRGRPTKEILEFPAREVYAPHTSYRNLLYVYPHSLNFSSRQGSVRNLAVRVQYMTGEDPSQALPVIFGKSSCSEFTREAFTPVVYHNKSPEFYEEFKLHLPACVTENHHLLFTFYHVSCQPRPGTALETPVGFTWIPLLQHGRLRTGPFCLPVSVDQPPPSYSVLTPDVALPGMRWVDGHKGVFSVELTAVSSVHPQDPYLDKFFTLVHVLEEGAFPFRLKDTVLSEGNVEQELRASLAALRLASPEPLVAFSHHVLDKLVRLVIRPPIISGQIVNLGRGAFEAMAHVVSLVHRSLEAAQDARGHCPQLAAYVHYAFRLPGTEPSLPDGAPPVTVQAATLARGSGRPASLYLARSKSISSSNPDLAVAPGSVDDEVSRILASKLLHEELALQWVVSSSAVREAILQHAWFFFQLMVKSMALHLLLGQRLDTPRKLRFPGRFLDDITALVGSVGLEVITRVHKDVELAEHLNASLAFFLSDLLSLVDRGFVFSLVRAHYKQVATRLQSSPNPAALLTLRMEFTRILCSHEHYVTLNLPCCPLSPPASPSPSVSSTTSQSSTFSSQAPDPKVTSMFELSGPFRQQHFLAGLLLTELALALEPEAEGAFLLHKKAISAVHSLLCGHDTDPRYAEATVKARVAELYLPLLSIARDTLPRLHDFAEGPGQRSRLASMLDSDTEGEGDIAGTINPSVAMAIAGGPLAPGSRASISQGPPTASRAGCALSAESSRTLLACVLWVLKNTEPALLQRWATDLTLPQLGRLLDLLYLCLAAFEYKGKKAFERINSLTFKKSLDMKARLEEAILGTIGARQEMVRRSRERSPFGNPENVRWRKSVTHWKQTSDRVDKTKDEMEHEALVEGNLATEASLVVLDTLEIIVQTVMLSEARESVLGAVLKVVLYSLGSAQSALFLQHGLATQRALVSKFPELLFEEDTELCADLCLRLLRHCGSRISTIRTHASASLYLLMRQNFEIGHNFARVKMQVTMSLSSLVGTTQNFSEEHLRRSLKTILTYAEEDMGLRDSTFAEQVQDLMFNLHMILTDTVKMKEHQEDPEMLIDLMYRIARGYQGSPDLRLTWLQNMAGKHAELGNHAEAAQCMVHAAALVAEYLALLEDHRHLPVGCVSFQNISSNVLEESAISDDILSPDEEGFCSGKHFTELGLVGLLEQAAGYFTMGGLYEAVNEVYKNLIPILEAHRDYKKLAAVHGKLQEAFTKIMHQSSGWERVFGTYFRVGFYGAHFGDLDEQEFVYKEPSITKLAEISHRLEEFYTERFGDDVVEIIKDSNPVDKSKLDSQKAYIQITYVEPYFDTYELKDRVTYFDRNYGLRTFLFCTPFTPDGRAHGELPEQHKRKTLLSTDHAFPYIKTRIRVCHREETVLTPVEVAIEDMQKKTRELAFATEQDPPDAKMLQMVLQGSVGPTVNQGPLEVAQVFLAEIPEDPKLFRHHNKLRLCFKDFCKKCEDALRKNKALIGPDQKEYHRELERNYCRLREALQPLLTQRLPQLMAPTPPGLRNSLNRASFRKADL
UniProt Q99496: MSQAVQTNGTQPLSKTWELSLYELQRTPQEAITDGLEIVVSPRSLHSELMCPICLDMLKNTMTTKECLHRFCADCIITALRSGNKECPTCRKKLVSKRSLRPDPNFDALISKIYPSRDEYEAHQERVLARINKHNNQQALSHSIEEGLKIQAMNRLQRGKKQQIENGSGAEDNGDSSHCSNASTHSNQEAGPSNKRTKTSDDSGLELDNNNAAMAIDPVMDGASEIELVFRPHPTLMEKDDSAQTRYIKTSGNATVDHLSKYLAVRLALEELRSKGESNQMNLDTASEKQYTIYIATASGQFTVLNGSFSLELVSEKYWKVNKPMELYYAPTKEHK
UniProt Q96GE9: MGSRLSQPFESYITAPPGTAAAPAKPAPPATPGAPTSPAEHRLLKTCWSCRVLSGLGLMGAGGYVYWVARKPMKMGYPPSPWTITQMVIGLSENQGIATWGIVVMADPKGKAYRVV
UniProt Q96NY9: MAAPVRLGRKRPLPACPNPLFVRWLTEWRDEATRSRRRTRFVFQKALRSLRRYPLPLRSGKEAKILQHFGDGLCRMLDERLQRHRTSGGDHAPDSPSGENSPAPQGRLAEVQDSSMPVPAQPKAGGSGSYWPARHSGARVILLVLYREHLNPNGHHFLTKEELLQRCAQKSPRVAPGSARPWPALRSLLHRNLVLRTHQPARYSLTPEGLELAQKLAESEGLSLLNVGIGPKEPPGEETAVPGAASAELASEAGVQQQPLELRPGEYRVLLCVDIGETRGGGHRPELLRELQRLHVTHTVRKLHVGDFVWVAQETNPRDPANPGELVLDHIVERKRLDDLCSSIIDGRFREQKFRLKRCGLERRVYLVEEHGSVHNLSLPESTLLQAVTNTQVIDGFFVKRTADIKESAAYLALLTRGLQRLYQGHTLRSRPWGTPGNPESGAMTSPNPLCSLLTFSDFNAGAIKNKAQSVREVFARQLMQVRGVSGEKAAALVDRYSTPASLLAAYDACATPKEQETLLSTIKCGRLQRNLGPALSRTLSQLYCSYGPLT
UniProt Q96H20: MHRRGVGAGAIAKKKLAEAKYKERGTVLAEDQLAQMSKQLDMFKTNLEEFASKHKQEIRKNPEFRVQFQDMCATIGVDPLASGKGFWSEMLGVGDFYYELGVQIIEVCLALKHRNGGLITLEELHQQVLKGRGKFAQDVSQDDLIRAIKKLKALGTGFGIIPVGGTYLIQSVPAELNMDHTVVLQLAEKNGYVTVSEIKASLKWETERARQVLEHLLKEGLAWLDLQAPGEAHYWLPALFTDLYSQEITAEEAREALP
UniProt Q96PE7: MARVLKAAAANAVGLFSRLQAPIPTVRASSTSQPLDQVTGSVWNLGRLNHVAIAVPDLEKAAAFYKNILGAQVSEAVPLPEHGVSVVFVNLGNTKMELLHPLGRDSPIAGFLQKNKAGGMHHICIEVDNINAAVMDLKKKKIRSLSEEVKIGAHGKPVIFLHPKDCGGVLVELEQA
UniProt Q96QG7: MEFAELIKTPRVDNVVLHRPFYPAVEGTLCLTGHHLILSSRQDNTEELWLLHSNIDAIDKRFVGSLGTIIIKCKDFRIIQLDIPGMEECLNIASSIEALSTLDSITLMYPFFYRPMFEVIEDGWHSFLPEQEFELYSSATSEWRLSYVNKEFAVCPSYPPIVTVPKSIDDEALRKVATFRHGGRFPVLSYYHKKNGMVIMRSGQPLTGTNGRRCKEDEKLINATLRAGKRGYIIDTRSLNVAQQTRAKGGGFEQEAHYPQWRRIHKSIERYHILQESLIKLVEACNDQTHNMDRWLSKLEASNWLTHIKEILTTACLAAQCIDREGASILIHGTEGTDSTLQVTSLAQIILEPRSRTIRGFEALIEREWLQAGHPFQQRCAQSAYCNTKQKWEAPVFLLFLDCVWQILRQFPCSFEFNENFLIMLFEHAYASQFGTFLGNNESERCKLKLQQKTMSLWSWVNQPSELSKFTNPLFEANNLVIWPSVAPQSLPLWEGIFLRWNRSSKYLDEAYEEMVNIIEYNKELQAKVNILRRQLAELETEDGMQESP

Target	melting temperature shift (MBE1 concentration: 100 nM)	melting temperature shift (MBE1 concentration: 1 uM)
WBSCR16 (UniProt Q96I51)	-0.756 °C	0.641 °C
USP28 (UniProt Q96RU2)	-0.423 °C	-0.589 °C
NSMCE2 (UniProt Q96MF7)	-0.953 °C	-0.684 °C
UniProt Q96L73	0.0256 °C	-1.35 °C
XPO6 (UniProt Q96QU8)	-0.136 °C	0.306 °C
RNF31 (UniProt Q96EP0)	-1.11 °C	-1.75 °C
UniProt Q96NB1	-2.32 °C	-3.43 °C
SORT1 (UniProt Q99523)	-1.02 °C	-0.833 °C
EXOC2 (UniProt Q96KP1)	-0.245 °C	-0.198 °C
NGLY1 (UniProt Q96IV0)	0 °C	0.231 °C
DNAJC1 (UniProt Q96KC8)	0.464 °C	0.659 °C
UniProt Q96KN1	1.47 °C	0.574 °C
TRIM47 (UniProt Q96LD4)	-0.865 °C	-0.711 °C
TUBGCP6 (UniProt Q96RT7)	1.53 °C	-0.678 °C
UniProt Q96MU7	-0.725 °C	-0.828 °C
MARS2 (UniProt Q96GW9)	-1.48 °C	0.861 °C
NEDD4L (UniProt Q96PU5)	-0.311 °C	-0.268 °C
UniProt Q96ME7	-0.529 °C	-0.527 °C
WDFY2 (UniProt Q96P53)	-2.3 °C	-3.55 °C
EDC3 (UniProt Q96F86)	0.446 °C	0.311 °C
PPP1R10 (UniProt Q96QC0)	0.11 °C	0.629 °C
UniProt Q96PM9	0.287 °C	0.409 °C
PRRC1 (UniProt Q96M27)	-3.13 °C	-2.92 °C
PBK (UniProt Q96KB5)	-0.527 °C	-0.0706 °C

Exported as labelled records: part of the list above.
RNF31 (UniProt Q96EP0)
  melting temperature shift (MBE1 concentration: 100 nM): -1.11 °C
  melting temperature shift (MBE1 concentration: 1 uM): -1.75 °C
TRIM47 (UniProt Q96LD4)
  melting temperature shift (MBE1 concentration: 100 nM): -0.865 °C
  melting temperature shift (MBE1 concentration: 1 uM): -0.711 °C
UniProt Q96MU7
  melting temperature shift (MBE1 concentration: 100 nM): -0.725 °C
  melting temperature shift (MBE1 concentration: 1 uM): -0.828 °C
NEDD4L (UniProt Q96PU5)
  melting temperature shift (MBE1 concentration: 100 nM): -0.311 °C
  melting temperature shift (MBE1 concentration: 1 uM): -0.268 °C

(further entries)

Target	melting temperature shift (MBE1 concentration: 100 nM)	melting temperature shift (MBE1 concentration: 1 uM)
UniProt Q96EW2	-0.0671 °C	0.604 °C
SDF2 (UniProt Q99470)	-1.36 °C	0.305 °C
SGTB (UniProt Q96EQ0)	0.0469 °C	-0.0716 °C
SMG1 (UniProt Q96Q15)	-0.127 °C	0 °C
UniProt Q96Q89	-7.86 °C	-0.0128 °C
AGAP3 (UniProt Q96P47)	-0.668 °C	-0.913 °C
TMX3 (UniProt Q96JJ7)	-0.778 °C	0.677 °C
ZFR (UniProt Q96KR1)	-0.177 °C	0.216 °C
MCCC1 (UniProt Q96RQ3)	0.372 °C	0.55 °C
UniProt Q96GD4	0.212 °C	0.325 °C
TRAPPC9 (UniProt Q96Q05)	0.153 °C	0.0977 °C
QKI (UniProt Q96PU8)	-1.67 °C	-0.541 °C
UniProt Q96LI5	-0.0977 °C	0.0183 °C
CLPTM1L (UniProt Q96KA5)	-0.0427 °C	0.507 °C
UniProt Q96ES6	-1.81 °C	-1.13 °C
PGM2 (UniProt Q96G03)	-1.18 °C	-0.932 °C
C17ORF59 (UniProt Q96GS4)	-1.14 °C	0.299 °C
SMARCD1 (UniProt Q96GM5)	-0.359 °C	-0.109 °C
TBCB (UniProt Q99426)	0.0366 °C	-0.452 °C
MMS19 (UniProt Q96T76)	-0.141 °C	0.122 °C
COG8 (UniProt Q96MW5)	-0.259 °C	-0.0141 °C
DOCK6 (UniProt Q96HP0)	-1.25 °C	-0.102 °C
NSUN5 (UniProt Q96P11)	-0.429 °C	-0.32 °C
UniProt Q96K19	0.0488 °C	0.745 °C

Target	melting temperature shift (MBE1 concentration: 100 nM)	melting temperature shift (MBE1 concentration: 1 uM)
GMPPA (UniProt Q96IJ6)	-0.443 °C	0.402 °C
ARAP1 (UniProt Q96P48)	-0.76 °C	-0.08 °C
NEU1 (UniProt Q99519)	-0.721 °C	-1.53 °C
UniProt Q96J92	0.055 °C	0.495 °C
UBL7 (UniProt Q96S82)	0.403 °C	0.104 °C
UniProt Q96N46	-0.378 °C	-0.0822 °C
UniProt Q96K80	0.336 °C	-0.745 °C
UniProt Q96T21	-1.03 °C	-0.497 °C
NUDCD1 (UniProt Q96RS6)	0.458 °C	0.775 °C
UniProt Q96RF0	-0.575 °C	-0.74 °C
OTUB1 (UniProt Q96FW1)	-0.648 °C	0.0855 °C
UniProt Q96EZ8	-8.54 °C	-0.282 °C
CCDC97 (UniProt Q96F63)	-0.546 °C	-1.09 °C
NARS2 (UniProt Q96I59)	-0.837 °C	-0.461 °C
DNAJA3 (UniProt Q96EY1)	-2.34 °C	-2.2 °C
RNF2 (UniProt Q99496)	-0.933 °C	-0.372 °C
SPAG5 (UniProt Q96R06)	-0.984 °C	-0.641 °C
SGF29 (UniProt Q96ES7)	0.0122 °C	0.72 °C
WDR92 (UniProt Q96MX6)	2.05 °C	1.19 °C
APIP (UniProt Q96GX9)	-1.83 °C	-0.673 °C
UniProt Q96JN0	-3.59 °C	-2.79 °C
STRBP (UniProt Q96SI9)	-0.635 °C	-0.159 °C
UniProt Q96NL6	0.309 °C	2.33 °C
DHRS1 (UniProt Q96LJ7)	0.458 °C	1.17 °C

Target	melting temperature shift (MBE1 concentration: 100 nM)	melting temperature shift (MBE1 concentration: 1 uM)
CERS2 (UniProt Q96G23)	0.122 °C	0.605 °C
CCDC51 (UniProt Q96ER9)	-0.423 °C	-0.161 °C
RBM33 (UniProt Q96EV2)	-1.52 °C	-0.485 °C
ZNF830 (UniProt Q96NB3)	-1.16 °C	-3.29 °C
NRBF2 (UniProt Q96F24)	1.1 °C	0.409 °C
PNKP (UniProt Q96T60)	-0.852 °C	-0.833 °C
THOC1 (UniProt Q96FV9)	-0.438 °C	-0.748 °C
CCDC43 (UniProt Q96MW1)	-0.238 °C	1.29 °C
KIRREL (UniProt Q96J84)	-0.545 °C	-0.599 °C
UniProt Q96GE9	5.89 °C	6.79 °C
DHTKD1 (UniProt Q96HY7)	1.41 °C	0.202 °C
CIC (UniProt Q96RK0)	-0.579 °C	-1.63 °C
OSBPL9 (UniProt Q96SU4)	-0.748 °C	-0.499 °C
RMDN3 (UniProt Q96TC7)	0.702 °C	0.415 °C
FAM210A (UniProt Q96ND0)	-1.01 °C	-0.435 °C
SMC6 (UniProt Q96SB8)	0.757 °C	0.318 °C
RBM15 (UniProt Q96T37)	-0.154 °C	-0.372 °C
UniProt Q96PV6	-0.833 °C	-0.963 °C
METTL2A (UniProt Q96IZ6)	-0.649 °C	0.0141 °C
DDX27 (UniProt Q96GQ7)	1.41 °C	0.232 °C
PUS7 (UniProt Q96PZ0)	-0.698 °C	-0.424 °C
CLIC6 (UniProt Q96NY7)	-2.29 °C	2.41 °C
VCPIP1 (UniProt Q96JH7)	-0.583 °C	-0.34 °C
UniProt Q96NY9	-0.243 °C	0.211 °C

Target	melting temperature shift (MBE1 concentration: 100 nM)	melting temperature shift (MBE1 concentration: 1 uM)
TRNT1 (UniProt Q96Q11)	0.446 °C	-0.354 °C
SNF8 (UniProt Q96H20)	-0.919 °C	0.0672 °C
UniProt Q96QD9	-0.122 °C	0.605 °C
UniProt Q96PE7	-3.95 °C	-2.69 °C
CYFIP2 (UniProt Q96F07)	0.47 °C	0.904 °C
UniProt Q99502	-1.39 °C	-1.03 °C
MTMR9 (UniProt Q96QG7)	1.06 °C	0.385 °C
PRMT6 (UniProt Q96LA8)	0.0488 °C	-0.0604 °C
UHRF1 (UniProt Q96T88)	-0.192 °C	-0.474 °C
TMEM209 (UniProt Q96SK2)	0.782 °C	1.2 °C
ANKRD27 (UniProt Q96NW4)	0.132 °C	-1.55 °C
UniProt Q96G21	0.916 °C	0.0977 °C
UniProt Q96Q83	-0.733 °C	1.72 °C
UniProt Q96S15	-0.55 °C	0.416 °C
PDLIM5 (UniProt Q96HC4)	-0.548 °C	0.287 °C
CNDP2 (UniProt Q96KP4)	-2.97 °C	-0.88 °C
RPRD1A (UniProt Q96P16)	-1.33 °C	0.506 °C
UniProt Q96SB3	-1.03 °C	-0.847 °C
UniProt Q96FN4	1.23 °C	0.751 °C
HPDL (UniProt Q96IR7)	-1.56 °C	-0.309 °C
DUS3L (UniProt Q96G46)	-1.11 °C	-1.26 °C
UniProt Q96MY1	-4.33 °C	-3.63 °C
UniProt Q96N06	-2.41 °C	-4.13 °C
UIMC1 (UniProt Q96RL1)	-1.26 °C	1.47 °C

Source: the supplement of paper PMC12595434, “Development of retinoid nuclear receptor pathway antagonists through targeting aldehyde dehydrogenase 1A3” (iScience, 2025)
